Assay results: PubChem BioAssay AID1671190 (National Center for Advancing Translational Sciences (NCATS), 2021)
“And” between values parts separate entries of the source, which are not always exact repeats. Identical values can stand only once. Among all 580,000 compounds or so, about 6,100 (1.1%) were called active. This list was built around the results that the source calls inconclusive (neither active nor inactive); the mix of calls is not that of the screen. Calls come from the whole dose curve; as a rule, active = well fitted inhibition curve with a large enough effect; inconclusive = small, poorly fitted or top-dose-only effect, or another doubt; inactive = no such curve, though single readings can be large or run the other way. Where the call is inconclusive, the potency comes from a doubtful curve fit.

The chains behind the UniProt entries cited, without tags or fusion partners. Where a name states a change or a piece, a line headed by the entry shows the natural chain unless it says otherwise.
UniProt P18054: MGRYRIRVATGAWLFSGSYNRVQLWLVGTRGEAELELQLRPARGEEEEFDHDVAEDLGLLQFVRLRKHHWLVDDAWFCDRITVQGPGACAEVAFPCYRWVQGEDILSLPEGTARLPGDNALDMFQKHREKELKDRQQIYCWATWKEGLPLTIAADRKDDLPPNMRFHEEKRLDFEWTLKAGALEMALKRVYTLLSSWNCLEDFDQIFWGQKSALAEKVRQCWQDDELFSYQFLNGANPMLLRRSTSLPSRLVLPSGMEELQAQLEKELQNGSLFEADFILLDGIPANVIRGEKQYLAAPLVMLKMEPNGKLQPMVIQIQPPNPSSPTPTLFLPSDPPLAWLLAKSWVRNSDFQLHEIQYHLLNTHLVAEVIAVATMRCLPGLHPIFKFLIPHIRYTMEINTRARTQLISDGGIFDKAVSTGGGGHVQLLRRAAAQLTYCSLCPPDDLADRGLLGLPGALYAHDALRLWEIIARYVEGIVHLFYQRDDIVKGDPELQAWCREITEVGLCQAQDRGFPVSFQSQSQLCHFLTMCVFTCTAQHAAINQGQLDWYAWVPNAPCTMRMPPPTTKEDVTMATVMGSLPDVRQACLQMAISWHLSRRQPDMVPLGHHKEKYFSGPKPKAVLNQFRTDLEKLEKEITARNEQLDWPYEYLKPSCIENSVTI

target: Polyunsaturated fatty acid lipoxygenase ALOX12 (Homo sapiens) (UniProt P18054); experiment: Primary qHTS assay for inhibitors of human arachidonate 12S-lipoxygenase (ALOX12): Round 2; settings: purified 12hLO, xylenol orange hydroperoxide absorbance; series mostly up to 108 µM
In short: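 Purified human 12hLO (150 nM final) in 25 mM Hepes, 0.01% Triton X-100, pH 7.0 was preincubated 15 min at room temperature with compound. Then 40 uM arachidonic acid was added, 30 min. Hydroperoxide was read by Fe-XO absorbance ratio 573/405 nm.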
Potency is the fitted concentration of half-maximal effect.

SMILES | Potency
COc1ccc(/C=C(\C#N)C(=O)Nc2cc(S(=O)(=O)N3CCOCC3)ccc2N2CCCC2)cc1 | inconclusive: 44.7 µM [inhibitor, partial curve, poor fit]
CC(=O)N(c1ccc2oc(=O)sc2c1)S(=O)(=O)c1ccc(C(=O)O)cc1 | inactive
COc1ccc(-c2oc(=O)c3cc(OC)c(OC)cc3c2C#CCCCO)cc1 | inactive
COc1ccc(C(=O)C(C)OC(=O)c2ccc3ccccc3n2)cc1 (stereo not drawn) | inactive
O=S(=O)(N[C@@H]1CCOC[C@H]1O)c1cccc(C(F)(F)F)c1 | inactive
CN(C)C(CNC(=O)Cc1c[nH]c2ccccc12)c1ccccc1 (stereo not drawn) | inactive
COc1ccc(/C=C2\SC(N)=NC2=O)cc1Cl | inactive
c1ccc(-c2csc(Nc3ccc4c(c3)OCO4)n2)cc1 | inconclusive: 89.1 µM [inhibitor, single point] and active: 3.55 µM
O=C(CSc1n[nH]c(=O)n1-c1ccccc1)Nc1ccccc1 | inconclusive: 89.1 µM [inhibitor, partial curve, poor fit]
CC(C)CC1NC(=O)c2cc3ccccc3cc2-n2c1nc1ccc(F)cc1c2=O (stereo not drawn) | inconclusive: 79.4 µM [inhibitor, single point]
Cc1cccc(-n2c(-c3ccncc3)n[nH]c2=S)c1C | inconclusive: 100 µM [inhibitor, single point]
CN(C)c1nc(-c2ccncc2)nc2c1CCN(C(=O)c1cc(=O)[nH]c(=O)[nH]1)C2 | inconclusive: 5.01 µM [inhibitor, full curve]
Cc1oc(-c2cccc(F)c2)nc1CN1CCCN(C(=O)c2ccco2)CC1 | inconclusive: 7.94 µM [inhibitor, full curve, poor fit]
CN(CC(=O)NCc1nc(-c2ccccc2)no1)S(=O)(=O)c1cc(Cl)ccc1Cl | inactive
COc1cc(/C=N/Nc2ccc(C)cc2)cc(Br)c1O | active: 10 µM
COc1ccccc1C(C)NC(=O)Cn1c(=O)c2c(ncn2C)n(C)c1=O (stereo not drawn) | inconclusive: 44.7 µM [inhibitor, partial curve, poor fit]
COc1ccc(-c2noc(CCCC(=O)NC3CCCCC3)n2)cc1 | inactive
O=C(Nc1cccc(C(F)(F)F)c1)C1Cc2c(-c3ccccc3)ccnc2O1 (stereo not drawn) | inconclusive: 89.1 µM [inhibitor, single point]
Cc1ccc([N+](=O)[O-])cc1NC(=O)C(Sc1ccccc1)c1ccccc1 (stereo not drawn) | inconclusive: 7.08 µM [inhibitor, full curve]
Cc1ccc(-c2nn(CC(=O)NC3CCCCC3)c3c2cnc2ccccc23)cc1 | inconclusive: 112 µM [inhibitor, partial curve, poor fit]
COc1ccc(NC(=O)c2nc3nc(C)cc(C(F)F)n3n2)cc1OC | inactive
CCS(=O)(=O)NCC1(COc2ccc(S(C)(=O)=O)cc2)C[C@@H](O)[C@@H](O)C1 (stereo partly drawn) | active: 12.6 µM

SMILES | Potency
OCc1cc(CC2(NCc3ccccc3O)COC2)no1 | inactive
Cc1ccc(Cl)cc1N1CCN(C(=O)c2cccn2-c2nnc(N3CCCC3)s2)CC1 | inconclusive: 141 µM [inhibitor, partial curve, poor fit]
Cc1cc(C)c(S(=O)(=O)Nc2ccc3oc(C)nc3c2)c(C)c1 | inconclusive: 56.2 µM [inhibitor, partial curve, poor fit]
O=C(Nc1ccc(-c2nc3ccccc3o2)cc1)c1ccc2c(c1)OCO2 | inconclusive: 112 µM [inhibitor, partial curve, poor fit] and inconclusive: 126 µM [inhibitor, single point]
S=C(NCc1cccnc1)Nc1ccc(Br)cc1Cl | inconclusive: 44.7 µM [inhibitor, single point]
Cc1ccc2c(c1)-c1c(ssc1=S)C(C)(C)N2C(=O)CN1C(=O)c2ccccc2C1=O | inconclusive: 28.2 µM [inhibitor, partial curve, poor fit]
CC1=CC(C)(C)N(C(=O)CCl)c2cc(C)ccc21 | inactive
Cc1cc2oc(=O)cc(-c3cc4ccccc4o3)c2cc1O | inactive
COc1ccc(Cn2nnnc2C(c2ccccc2Cl)N2CCN(C)CC2)cc1 (stereo not drawn) | inconclusive: 35.5 µM [inhibitor, partial curve, poor fit]
Clc1ccccc1-c1csc(Nc2cccnc2)n1 | inconclusive: 31.6 µM [inhibitor, partial curve, poor fit]
CC1(C)CC2(C)Nc3ccccc3N2C(=S)N1 (stereo not drawn) | inconclusive: 44.7 µM [inhibitor, full curve, poor fit]
COc1cc(OC)cc(C2=Cc3ccccc3C(CC(C)=O)N2c2ccc(C#CCCO)cc2)c1 (stereo not drawn) | inconclusive: 39.8 µM [inhibitor, single point]
CC(C)C[C@H]1CN([C@@H](CC(C)C)CN2CCC[C@@H]2CN2C(=S)NC[C@@H]2Cc2ccc(O)cc2)C(=S)N1CC1CCCCC1 | inconclusive: 22.4 µM [inhibitor, full curve, poor fit]
CN(C)S(=O)(=O)c1ccc2oc(SCC(=O)N3CCCC3=O)nc2c1 | inconclusive: 56.2 µM [inhibitor, partial curve, poor fit]
CC(Oc1ccc(Cl)cc1Cl)C(=O)/C=C/N(C)C (stereo not drawn) | inconclusive: 141 µM [inhibitor, partial curve, poor fit]
CCc1ccc(NC(=O)CSc2nc3cc([N+](=O)[O-])ccc3o2)cc1 | inconclusive: 17.8 µM [inhibitor, partial curve, poor fit]
CCCCCCCc1ccc(-c2nnc(-c3ccc(Br)cc3)o2)cc1 | inactive
c1ccc(Cc2nc3ccccc3[nH]2)cc1 | inactive
CCOc1ccccc1/C=N/NC(=O)c1cccc(Cl)c1 | inactive
CC(C)CCn1cnc2c1c(=O)n(CC(=O)NC(N)=O)c(=O)n2Cc1ccccc1 | inconclusive: 50.1 µM [inhibitor, partial curve, poor fit]
Cc1nn(-c2ccccc2)c(C)c1-c1nnc(-c2c(C)nn(-c3ccccc3)c2C)o1 | inconclusive: 141 µM [inhibitor, single point]
